Results on three molecules are retold here after article PMC7641127, “MCL1 binds and negatively regulates the transcriptional function of tumor suppressor p73” (Cell Death & Disease, 2020).

The chains behind the UniProt entries cited, without tags or fusion partners.
UniProt Q07820: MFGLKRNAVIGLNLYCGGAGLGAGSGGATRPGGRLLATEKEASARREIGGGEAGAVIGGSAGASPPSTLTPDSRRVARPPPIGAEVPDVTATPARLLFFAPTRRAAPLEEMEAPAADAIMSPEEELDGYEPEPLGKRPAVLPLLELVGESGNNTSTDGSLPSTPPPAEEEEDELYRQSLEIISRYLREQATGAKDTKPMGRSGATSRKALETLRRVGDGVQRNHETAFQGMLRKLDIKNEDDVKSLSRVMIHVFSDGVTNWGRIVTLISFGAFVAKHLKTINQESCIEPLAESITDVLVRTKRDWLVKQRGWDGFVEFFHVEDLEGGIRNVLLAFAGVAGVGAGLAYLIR

No constants are given. Whether binding was seen depends on the method and setting. Binding seen in cells or lysates may run through a third protein. Some binding calls cover weakened binding; strength is not graded here. Where a sequence is shown, tags or fusion partners need not be part of it.

This assay deals with MCL1 (full length human, overexpressed in HEK293T) (human) (UniProt Q07820). The assay can be described thus: co-IP; HEK293T co-transfected with MCL1 and a FLAG-p73 construct or FLAG control, 50 nM bortezomib for 24 h; MCL1 precipitated with anti-MCL1 (RC-13) on protein G Dynabeads; western blot for FLAG and MCL1.

B1: FLAG-tagged TAp73α (protein, UniProt O15350-1 1-636)
chain: MAQSTATSPDGGTTFEHLWSSLEPDSTYFDLPQSSRGNNEVVGGTDSSMDVFHLEGMTTSVMAQFNLLSSTMDQMSSRAASASPYTPEHAASVPTHSPYAQPSSTFDTMSPAPVIPSNTDYPGPHHFEVTFQQSSTAKSATWTYSPLLKKLYCQIAKTCPIQIKVSTPPPPGTAIRAMPVYKKAEHVTDVVKRCPNHELGRDFNEGQSAPASHLIRVEGNNLSQYVDDPVTGRQSVVVPYEPPQVGTEFTTILYNFMCNSSCVGGMNRRPILIIITLEMRDGQVLGRRSFEGRICACPGRDRKADEDHYREQQALNESSAKNGAASKRAFKQSPPAVPALGAGVKKRRHGDEDTYYLQVRGRENFEILMKLKESLELMELVPQPLVDSYRQQQQLLQRPSHLQPPSYGPVLSPMNKVHGGMNKLPSVNQLVGQPPPHSSAATPNLGPVGPGMLNNHGHAVPANGEMSSSHSAQSMVSGSHCTPPPPYHADPSLVSFLTGLGCPNCIEYFTSQGLQSIYHLQNLTIEDLGALKIPEQYRMTIWRGLQDLKQGHDYSTAQQLLRSSNAATISIGGSGELQRQRVMEAVHFRVRHTITIPNRGGPGGGPDEWADFGFDLPDCKARKQPIKEEFTEAEIH
As for B1, the binding entry was “binds weakly”.

B2: FLAG-ΔNp73α (protein, UniProt O15350-8 1-587)
chain: MLYVGDPARHLATAQFNLLSSTMDQMSSRAASASPYTPEHAASVPTHSPYAQPSSTFDTMSPAPVIPSNTDYPGPHHFEVTFQQSSTAKSATWTYSPLLKKLYCQIAKTCPIQIKVSTPPPPGTAIRAMPVYKKAEHVTDVVKRCPNHELGRDFNEGQSAPASHLIRVEGNNLSQYVDDPVTGRQSVVVPYEPPQVGTEFTTILYNFMCNSSCVGGMNRRPILIIITLEMRDGQVLGRRSFEGRICACPGRDRKADEDHYREQQALNESSAKNGAASKRAFKQSPPAVPALGAGVKKRRHGDEDTYYLQVRGRENFEILMKLKESLELMELVPQPLVDSYRQQQQLLQRPSHLQPPSYGPVLSPMNKVHGGMNKLPSVNQLVGQPPPHSSAATPNLGPVGPGMLNNHGHAVPANGEMSSSHSAQSMVSGSHCTPPPPYHADPSLVSFLTGLGCPNCIEYFTSQGLQSIYHLQNLTIEDLGALKIPEQYRMTIWRGLQDLKQGHDYSTAQQLLRSSNAATISIGGSGELQRQRVMEAVHFRVRHTITIPNRGGPGGGPDEWADFGFDLPDCKARKQPIKEEFTEAEIH
In the case of B2, the binding entry is “binds weakly”.

B3: FLAG-TAp73β (protein, UniProt O15350-2 1-499)
chain: MAQSTATSPDGGTTFEHLWSSLEPDSTYFDLPQSSRGNNEVVGGTDSSMDVFHLEGMTTSVMAQFNLLSSTMDQMSSRAASASPYTPEHAASVPTHSPYAQPSSTFDTMSPAPVIPSNTDYPGPHHFEVTFQQSSTAKSATWTYSPLLKKLYCQIAKTCPIQIKVSTPPPPGTAIRAMPVYKKAEHVTDVVKRCPNHELGRDFNEGQSAPASHLIRVEGNNLSQYVDDPVTGRQSVVVPYEPPQVGTEFTTILYNFMCNSSCVGGMNRRPILIIITLEMRDGQVLGRRSFEGRICACPGRDRKADEDHYREQQALNESSAKNGAASKRAFKQSPPAVPALGAGVKKRRHGDEDTYYLQVRGRENFEILMKLKESLELMELVPQPLVDSYRQQQQLLQRPSHLQPPSYGPVLSPMNKVHGGMNKLPSVNQLVGQPPPHSSAATPNLGPVGPGMLNNHGHAVPANGEMSSSHSAQSMVSGSHCTPPPPYHADPSLVRTWGP
Consider B3, for which the binding entry is “binds weakly”.
